Laboratory results taken from the DeepSol protein solubility set.

Experiment: soluble on expression in E. coli; label from the status in PepcDB or PDB records

Row | Sequence | soluble on expression in E. coli
1 | MGHHHHHHSHMQLQEEKVSEDDMDQDFLHLFKIVAGEGKEIGVYELQRLLNRMAIKFKSFKTKGFGLDACRCMINLMDKDGSGKLGLLEFKILWKKLKKWMDIFRECDQDHSGTLNSYEMRLVIEKAGIKLNNKVMQVLVARYADDDLIIDFDSFISCFLRLKTMFTFFLTMDPKNTGHICLSLEQWLQMTMWG | not soluble
2 | MAVAPARARSDYDYLIKLLLIGDSGVGKSCLLLRFSDDTFTTSFITTIGIDFKIRTVELDGKRIKLQIWDTAGQERFRTITTAYYRGAMGILLVYDVTDESSFNNIRNWMKNIEQHASDSVNKILVGNKADMDESKRAVPTSKGQALADEYGIKFFETSAKTNQNVEQVFLSIAKDIKQRLTESDTKAEPQGIKITKQDANKASSSSTNEKSACCSYV | soluble
3 | VQDRVKRPMNAFIVWSRDQRRKMALENPRMRNSEISKQLGYQWKMLTEAEKWPFFQEAQKLQAMHREKYPNYKYRKGETKKKFKDPNAPKRPPSAFFLFCSEYRPKIKGEHPGLSIGDVAKKLGEMWNNTAADDKQPYEKKAAKLKEKYEKDIAAYRAK | soluble
